# No constants are given. Whether binding was seen depends on the method and setting. Sequences can lack the tags named with a protein.
# Biological target: T1, His-tagged human ERCC1 (human) (UniProt P07992)
# T1 sequence: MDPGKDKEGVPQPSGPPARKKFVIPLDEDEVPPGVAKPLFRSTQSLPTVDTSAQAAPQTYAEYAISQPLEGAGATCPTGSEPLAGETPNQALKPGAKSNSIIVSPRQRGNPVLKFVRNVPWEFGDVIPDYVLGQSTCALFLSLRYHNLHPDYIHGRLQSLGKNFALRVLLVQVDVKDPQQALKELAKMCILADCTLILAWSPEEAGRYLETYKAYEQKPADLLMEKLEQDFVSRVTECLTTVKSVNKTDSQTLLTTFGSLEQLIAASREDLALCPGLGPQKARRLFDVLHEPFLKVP
# Assay: SEC; Superdex 200; FLAG-XPF-ERCC1 heterodimer, His-BTB and both combined, excess of BTB domain; fractions blotted with α-XPF and α-His; both purified
substance,measurement,value
His-tagged BTB domain of Xenopus laevis SLX4 (domain or fragment),binding,no binding

# From publication PMC5510004, “Recruitment and positioning determine the specific role of the XPF‐ERCC1 endonuclease in interstrand crosslink repair”
